# PubChem BioAssay AID504467 (National Center for Advancing Translational Sciences (NCATS), 2011)
# About 7,700 (2.3%) of roughly 330,000 compounds were called active. The inconclusive results got no clear call from the source; some entries with a clear call stand among them for comparison. Calls come from the whole dose curve; as a rule, active = well fitted inhibition curve with a large enough effect; inconclusive = small, poorly fitted or top-dose-only effect, or effect the other way; inactive = flat fitted curve, though single readings scatter. A potency beside an inconclusive call is a rough fit, not a confirmed value.
# Test: qHTS screen for small molecules that inhibit ELG1-dependent DNA repair in human embryonic kidney (HEK293T) cells expressing luciferase-tagged ELG1; note: nearly all actives have a fitted effect of over 55% in size
# Details: HEK293T ELG1-luciferase reporter, luminescence, 16 h, DNA damage induced by 5-fluorouridine; activity change, negative = inhibition: at 46.1 µM (top of the series)
# In short: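 Quantitative HTS, concentration-response format. 2,000 cells/well co-treated with 5-fluorouridine and compound, 16 hr in 5% CO2 at 37 °C; ONE-Glo luminescence read after 30 min.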
# % is set by controls: 0 for no effect and ±100 for the full control effect; potency is the fitted concentration of half-maximal effect.
Structure (SMILES),Potency,"activity change, negative = inhibition"
Cc1[nH]n2c(=O)cc(C(C)(C)C)nc2c1-c1ccccc1,"inconclusive: 10.3 µM [inhibitor, partial curve, poor fit]",–
O=C(Nc1ccccc1)c1ccc[nH]1,"inconclusive: 29.1 µM [activator, single point]",–
Nc1ccccc1S(=O)(=O)NCCCCc1ccccc1,inactive,–
CC(NC(=O)C1CCCN(S(=O)(=O)c2cccc3nonc23)C1)c1ccccc1 (stereo unspecified),inactive,–
COc1ccc(NC(=O)N(C)C[C@H]2Oc3c(NC(=O)NC(C)C)cccc3C(=O)N([C@H](C)CO)C[C@@H]2C)cc1,inactive,–
COc1ccc(/C=C/c2nnc(NC(=O)C(C)C)s2)cc1,"inconclusive: 29.1 µM [activator, single point]",–
COc1ccc(Cc2nnc(NC(=O)C3CC(=O)N(CCc4ccc(F)cc4)C3)s2)cc1OC (stereo unspecified),"inconclusive: 32.6 µM [inhibitor, single point]",–
Cc1ccc(C(=O)n2c(=S)nc3ccccn32)cc1,"inconclusive: 0.326 µM [activator, full curve]",–
CN(C)C(=O)COc1ncnc2sc(-c3ccccc3)cc12,"inconclusive: 29.1 µM [activator, single point]",–
CCn1c(CCl)nc2cc(S(=O)(=O)N3CCOCC3)ccc21,"inconclusive: 16.4 µM [inhibitor, partial curve]",–
CCCCc1n[nH]c2c1/C(=N/OCC)CC(C)(C)C2,"inconclusive: 0.206 µM [activator, full curve]",–
COC(=O)CN1C(=O)COc2ccc(S(=O)(=O)N3CCCC3)cc21,inactive,–
CC(C)C(=O)Nc1ccc(-c2nc3cccnc3o2)cc1,"inconclusive: 1.46 µM [activator, full curve]",–
O=[N+]([O-])c1ccc(O)c(-c2nn[nH]n2)c1,"inconclusive: 8.2 µM [activator, single point]",–
O=C(CCCN1C(=O)/C(=C\c2cccs2)SC1=S)NNC(=O)c1ccncc1,inactive,–
O=C(NNS(=O)(=O)c1ccccc1)c1cnn(-c2ccc(Cl)cc2)c1C(F)(F)F,"inconclusive: 29.1 µM [inhibitor, single point]",–
O=C(CNC(=O)C1COc2ccccc2O1)N/N=C\c1ccccc1Cl (stereo unspecified),inactive,–
O=C(Nc1nnc(C2CC2)s1)C1Cc2ccccc2CN1C(=O)c1ccco1 (stereo unspecified),inactive,–
COC(=O)c1ccc(-c2ccco2)n1Cc1nc(-c2ccc(OC)c(OC)c2)oc1C,"inconclusive: 12.6 µM [inhibitor, partial curve, poor fit]",–
Cc1ccccc1Cn1c2ccccc2c2cnn(CC(=O)NCc3ccco3)c(=O)c21,"inconclusive: 3.66 µM [activator, full curve, poor fit]",–
O=C(c1ccc(C(F)(F)F)cc1)N1CCC(=O)N(C(COCc2ccc(C(F)(F)F)cc2)Cc2ccccc2)CC1 (stereo unspecified),"inconclusive: 8.2 µM [inhibitor, partial curve]",–
COc1ccc(/C=C/C(=O)NC(=S)Nc2cc([N+](=O)[O-])ccc2O)cc1OC,inactive,–
CCOc1ccccc1Oc1coc2cc(OC)ccc2c1=O,"inconclusive: 35.5 µM [activator, single point]",–
O=C1CCCC2=C1C(c1ccc(OS(=O)(=O)c3ccc(Cl)cc3)cc1)C1=C(CCCC1=O)O2,"inconclusive: 23.1 µM [inhibitor, single point]",–

Structure (SMILES),Potency,"activity change, negative = inhibition"
OC(COc1c(F)cc(Br)cc1F)CN1CCOCC1 (stereo unspecified),inactive,–
CCOC(=O)c1c(N)sc2c1CCCC2,"inconclusive: 23.1 µM [activator, single point]",–
NS(=O)(=O)c1ccc(NC(=O)CSc2nc3ccccc3n2-c2ccccc2)cc1,"inconclusive: 18.4 µM [inhibitor, single point]",–
O=C(c1cc2cc([N+](=O)[O-])ccc2oc1=O)n1cccn1,inactive,–
COc1ccc(CN(CC2CCC(C(=O)O)CC2)C(=S)Nc2cc(C)cc(C)c2)cc1 (stereo unspecified),inactive,–
COc1cccc(NC(=O)c2cc3ccccc3oc2=O)c1,–,inconclusive: 162% [activator]
COc1cc(C(=O)/C=C/c2cccnc2)c([N+](=O)[O-])cc1OC,"inconclusive: 25.1 µM [inhibitor, single point]",–
Cc1ccc(OCCNS(=O)(=O)c2ccc(N3CCCC3=O)cc2)cc1,"inconclusive: 18.4 µM [inhibitor, single point]",–
COc1ccccc1-c1cc(C(F)(F)F)nc(N2CCCC2)n1,inactive,–
O=C(CC1C(=O)NCCN1Cc1ccccc1F)NC1CCCCCC1 (stereo unspecified),"inconclusive: 0.206 µM [inhibitor, partial curve, poor fit]",–
Nc1ccc(/C=C/C(=O)c2cccs2)cc1,"inconclusive: 20.6 µM [activator, partial curve]",–
O=C(NC1CCN(Cc2ccccc2)CC1)c1ccc(Oc2cc(Cl)cc(Cl)c2)o1,"inconclusive: 18.3 µM [inhibitor, partial curve]",–
COC(=O)Cn1cnc2c(cnn2-c2ccc(OC)cc2)c1=O,"inconclusive: 23.1 µM [activator, single point]",–
O=C(Nc1ccon1)C1CCN(S(=O)(=O)c2cccs2)CC1,inactive,–
COc1ccc(-c2cc(C(F)(F)F)n3nc(C(=O)N(C)Cc4ccccc4)cc3n2)cc1OC,active: 20.6 µM,–
COc1ccc2c(=O)cc(C(F)(F)C(F)(F)F)oc2c1,inactive,–
CCOc1ccccc1CN1CCC(n2nccc2NC(=O)CCCc2ccccc2)CC1,"inconclusive: 25.9 µM [inhibitor, single point]",–
COc1cc(C#N)ccc1OCC(=O)Nc1ccc(C)c(S(=O)(=O)N2CCOCC2)c1,"inconclusive: 23.1 µM [inhibitor, single point]",–
Cc1ccc2cccc(NS(=O)(=O)c3ccccc3)c2n1,inactive,–
c1ccc(-c2cc(-c3ccncc3)nc3ccc4ccccc4c23)cc1,inactive,–
CC(=O)NCCC(Cc1ccccc1)c1ccco1 (stereo unspecified),"inconclusive: 14.6 µM [activator, partial curve, poor fit]",–
CCOC(=O)Cn1cc(Cl)cc(C(=O)Nc2ccccc2)c1=O,inactive,–
CCCCC(=O)N(c1ccc(OCC)cc1)C1C=CS(=O)(=O)C1 (stereo unspecified),inactive,–
COc1ccc(CNc2ncnc3cc(Cl)ccc23)cc1,"inconclusive: 10.3 µM [inhibitor, partial curve]",–

Structure (SMILES),Potency,"activity change, negative = inhibition"
O=C(NC1CC2CCCC(C1)N2C(=S)Nc1ccccc1)C1CC1 (stereo unspecified),inactive,–
O=C(O)c1ccc(/C=C/c2nc3ccccc3c(=O)[nH]2)cc1,inactive,–
O=C(CSc1nncc(=O)[nH]1)NC1CCCCC1,inactive,–
COCCNC(=O)C(c1cccnc1)N(Cc1ccccc1)C(=O)Cn1nnc2ccccc21 (stereo unspecified),"inconclusive: 23.1 µM [activator, partial curve]",–
O=C(c1ccco1)N1N=C(c2ccc(Br)cc2)CC1(O)C(F)(F)F (stereo unspecified),"inconclusive: 29.1 µM [inhibitor, single point]",–
Cc1nn(C)c(C)c1CNC(=O)Nc1cccc(Cl)c1,"inconclusive: 16.4 µM [activator, partial curve]",–
Cc1cc2ccccn2c1C(=O)Nc1ccccc1,"inconclusive: 20.6 µM [activator, partial curve]",–
N#Cc1cc([N+](=O)[O-])ccc1Oc1cccc(/C=N/NC(=O)c2cccc(Cl)c2)c1,"inconclusive: 18.4 µM [inhibitor, single point]",–
CSc1ncc(C(=O)O)n1-c1ccc(F)cc1,"inconclusive: 0.0651 µM [activator, partial curve, poor fit]",–
CN(Cc1ccccc1)S(=O)(=O)c1ccc(OCC(=O)N2CCOCC2)cc1,"inconclusive: 23.1 µM [inhibitor, single point]",–
S=C(NCc1ccco1)N1CCN(c2nc(-c3ccccc3)cs2)CC1,"inconclusive: 20.6 µM [inhibitor, single point]",–
Cc1cccc(/C=N/NC(=O)c2cc(-c3cccnc3)nc3c2c(C)nn3-c2ccccc2)c1,"inconclusive: 16.4 µM [inhibitor, partial curve, poor fit]",–
CCc1ccc(C2c3[nH]c4ccccc4c3CCN2C(=O)CNC(N)=O)cc1 (stereo unspecified),inactive,–
N#Cc1c2n(c3c(=O)n(Cc4ccccc4Cl)cnc13)CCCC2,"inconclusive: 23.1 µM [inhibitor, single point]",–
CC(C)c1ccc(NC(=O)CSc2nc(-c3ccccc3F)nc3nc[nH]c23)cc1,"inconclusive: 10.3 µM [activator, partial curve]",–
CC1(C)Cc2c(ccc3ccccc23)C2=C(C(=O)N3CCCC3)C(=O)C(=O)N21,"inconclusive: 2.59 µM [inhibitor, full curve]",–
CC(=O)Nc1ccc(NC(=O)CN(c2cc(Cl)ccc2Cl)S(C)(=O)=O)cc1,"inconclusive: 29.1 µM [inhibitor, single point]",–
CCOC(=O)c1sc(/N=C/C2=C(O)CC(C)(C)CC2=O)c(C(=O)OCC)c1C,"inconclusive: 20.6 µM [activator, partial curve]",–
COc1cnc(-c2ccccn2)[nH]c1=O,"inconclusive: 29.1 µM [inhibitor, single point]",–
Cc1[nH]c2ccccc2c1SCC(=O)NC1CCCCC1,"inconclusive: 20.6 µM [inhibitor, partial curve]",–
CCOC(=O)c1sc2nc(C)nc(NCc3ccccc3)c2c1C,active: 23.1 µM,–
Cc1cc(C(=O)COC(=O)CN(C)S(=O)(=O)c2ccc(Cl)cc2)c(C)n1CC1CCCO1 (stereo unspecified),inactive,–
CC(C)CCNc1nc(N)c([N+](=O)[O-])c(NCC2CCCO2)n1 (stereo unspecified),"inconclusive: 29.1 µM [inhibitor, single point]",–

# At a glance, some entries already given:
Structure (SMILES),Potency,"activity change, negative = inhibition"
N#Cc1c2n(c3c(=O)n(Cc4ccccc4Cl)cnc13)CCCC2,"inconclusive: 23.1 µM [inhibitor, single point]",–
CC(C)c1ccc(NC(=O)CSc2nc(-c3ccccc3F)nc3nc[nH]c23)cc1,"inconclusive: 10.3 µM [activator, partial curve]",–
CC1(C)Cc2c(ccc3ccccc23)C2=C(C(=O)N3CCCC3)C(=O)C(=O)N21,"inconclusive: 2.59 µM [inhibitor, full curve]",–
CC(=O)Nc1ccc(NC(=O)CN(c2cc(Cl)ccc2Cl)S(C)(=O)=O)cc1,"inconclusive: 29.1 µM [inhibitor, single point]",–
